Assay [1] has as its target MBP-tagged LvRab7 (Litopenaeus vannamei Rab7) (Litopenaeus vannamei) (UniProt D2DW56). Nature of the assay: pull-down; MBP pull-down: 100 μl MBP-tagged rPmRab7, rLvRab7 or rLvpIgR (1 μg/μl) with 100 μl VP28 or VP24, 4°C, 1 h; MBP-bind resin 2 h at 4°C; washed with PBS; Coomassie staining and western blot (GST tag antibody); both purified. For orientation: Immunoblotting shows a protein as a band on a membrane.

The chains behind the UniProt entries cited, without tags or fusion partners. Where a name states a change or a piece, a line headed by the entry shows the natural chain unless it says otherwise.
UniProt D2DW56: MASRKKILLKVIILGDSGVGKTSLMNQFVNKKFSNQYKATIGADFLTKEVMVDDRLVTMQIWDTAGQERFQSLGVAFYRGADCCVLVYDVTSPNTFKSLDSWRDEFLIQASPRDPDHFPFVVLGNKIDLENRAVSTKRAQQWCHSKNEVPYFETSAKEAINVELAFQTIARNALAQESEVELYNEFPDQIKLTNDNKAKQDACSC
UniProt Q00P14: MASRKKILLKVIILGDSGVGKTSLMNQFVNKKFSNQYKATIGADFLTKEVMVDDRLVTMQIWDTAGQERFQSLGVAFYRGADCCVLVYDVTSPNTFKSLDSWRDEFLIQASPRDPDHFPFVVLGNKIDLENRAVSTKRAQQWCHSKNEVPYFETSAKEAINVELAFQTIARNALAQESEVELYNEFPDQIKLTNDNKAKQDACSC
UniProt Q9ICB7: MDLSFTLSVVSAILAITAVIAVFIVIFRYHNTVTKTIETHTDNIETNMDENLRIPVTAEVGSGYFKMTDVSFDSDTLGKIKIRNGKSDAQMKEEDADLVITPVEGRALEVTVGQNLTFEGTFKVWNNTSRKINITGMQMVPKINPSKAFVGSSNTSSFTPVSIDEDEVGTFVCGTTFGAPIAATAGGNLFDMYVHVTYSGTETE

Assay [2] addresses MBP-tagged PmRab7 (Penaeus monodon Rab7) (Penaeus monodon) (UniProt Q00P14). The assay is described as above.
The target of assay [3] is GST-tagged VP28 of WSSV (white spot syndrome virus (WSSV)) (UniProt Q9ICB7). The assay can be described thus: pull-down; GST pull-down: 100 μl MBP-tagged rPmRab7, rLvRab7 or rLvpIgR (1 μg/μl) with 100 μl GST-tagged VP28 or VP24 (1 μg/μl), 4°C, 1 h; GST-binding resin 2 h at 4°C; washed with PBS; Coomassie staining and western blot (MBP tag antibody); both purified.
Assay [4] has the same target. Nature of the assay: pull-down; competitive GST pull-down with three recombinantly expressed proteins: VP28, LvRab7 and different amounts of BigPEN-FL; Coomassie staining and western blot; both purified.

Drawing on article PMC7048182, this text covers binding for 3 substances.

These are yes or no findings as the source states them, for the method shown. Binding can be weak; no strength is given.

Turning to “GST-tagged VP28 of WSSV (from UniProt Q9ICB7)”, the binding result in assay [1] and in assay [2] was “binds” in each case.

On to “MBP-tagged LvRab7 (Litopenaeus vannamei Rab7) (from UniProt D2DW56)”, for which the binding entry in assay [3] and in assay [4] was “binds” each time.

Regarding “MBP-tagged PmRab7 (Penaeus monodon Rab7) (from UniProt Q00P14 1-205)”, in assay [3], the binding result is listed as “binds”.
